Source: US4591573A (priority 1983, dated 1986)

Tested on: antibody to L-hyoscyamine (antiserum)
Format: binding, New Zealand white rabbit

CN1[C@@H]2CC[C@H]1C[C@@H](OC(=O)[C@H](CO)c1ccccc1)C2 [L-hyoscyamine]
L-hyoscyamine distinguishable from zero: About 25 pg/ml
detection limit of L-hyoscyamine: 25 picograms per milliliter
lowest measurable concentration of L-hyoscyamine: 25 pg per ml
reliably detectable amount of L-hyoscyamine: 25 picograms
useful range of the standard curve, upper end: up to 10 ng per assay tube
